# Data published in PubChem BioAssay AID1487 (National Center for Advancing Translational Sciences (NCATS), 2009).
# Hit rate of the full screen: of about 200,000 compounds, about 25 (0.01%) were called active. The inconclusive results got no clear call from the source; some entries with a clear call stand among them for comparison. Calls follow the shape of the dose curve; as a rule, active = well fitted inhibition curve with a large enough effect in the signal ratio, with a control signal flat (not every such curve was filed as active); inconclusive = small, poorly fitted or top-dose-only effect, or effect the other way, or a change in a side signal; inactive = flat fitted curve, though single readings scatter; the % refers to the signal ratio. Where the call is inconclusive, the potency comes from a doubtful curve fit.
# Test: qHTS Assay for Modulators of Lamin A Splicing
# Details: HeLa LMNA splicing GFP/RFP minigene ratio, 48 h; ratio change, negative = inhibition: at 46.1 µM (top of the series) unless noted
# In short: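 S3 HeLa cells stably expressing lamin A-EGFP splicing minigene plus DsRed2, 600 cells/well, 48 h compound exposure at 37C. Laser-scanning cytometry; analysed as GFP (500-530 nm)/RFP (575-640 nm) total intensity ratio; 0.5% DMSO vehicle.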
# % is scaled to controls: 0 for no effect and ±100 for the full control effect; potency is read from the fitted curve at half-maximal effect.
Compound,"ratio change, negative = inhibition",Potency
CC(=O)Oc1c(/C=C(\C#N)C(N)=O)[nH]c2ccccc12,inconclusive: -28.3%,
Cc1ccc(SC/C(O)=C(\C#N)c2nc3ccccc3s2)cc1,inactive: -18%,
COc1nnc(-c2ccc(C)c(S(=O)(=O)NCCO)c2)c2ccccc12,inconclusive: 23.4%,
COc1cc(CNCc2ccc(OC)c(OC)c2OC)cc(OC)c1,inactive: -21.3%,
COc1ccc(Oc2ncc3nc(-c4cc(F)cc(F)c4)c(=O)n(C[C@H]4CCCO4)c3n2)cc1,inconclusive: -20%,
O=C1C(Cl)=C(N2CCOCC2)C(=O)N1c1ccccc1,inconclusive: 7.52%,
CCOc1cc(/C=N/NC(=O)c2ccc(-c3csc(Nc4ccc(C)cc4)n3)cc2)ccc1OCC(=O)O,inactive: -8.7% [at 46 µM],
CCOC(=O)C1(CCc2ccccc2)CCN(C(=O)CCc2cnccn2)CC1,inconclusive: 15.1% [at 46 µM],
CCOC(=O)C1CCCN(C(=O)c2cc(Cl)ccc2Cl)C1 (configuration not stated),inactive: 1.16%,
O=C(O)c1ccccc1-c1c2ccc(=O)cc-2oc2cc(O)ccc12,inconclusive: -134%,
Cc1ccc(N2C(=O)c3ccccc3C2Nc2ccccc2F)nc1 (configuration not stated),inactive: 1.18%,
Cc1sc(N)nc1C12CC3CC(CC(C3)C1)C2,inconclusive: 7.14% [at 46 µM],
CC(=O)OCCNc1cc(Sc2nc3ccccc3[nH]2)c2nonc2c1[N+](=O)[O-],,"inconclusive: 35.5 µM [falling, single point]"
COc1ccc(Br)cc1CSC(=N)N,inconclusive: -13.5% [at 46 µM],
CCCCCCCCNC(=O)c1cccnc1SCC(=O)Nc1ccccc1OC,inconclusive: -9.79%,
O=C(Nc1ccon1)c1cc2c(s1)CCCCCC2,inactive: -5.75%,
CC(=O)Oc1ccccc1C(=O)O,inactive: -5.86%,
CCOC(=O)c1ccccc1NC(=O)N(Cc1ccco1)C1CCN(C(C)=O)CC1,inactive: -0.296% [at 46 µM],
CCc1cccc(NC(=O)CN2C=NS(=O)(=O)c3ccccc32)c1,inactive: 4.26% [at 46 µM],
NCCCCN=C(N)N,inconclusive: -8.16%,
CCC(=O)Nc1sc(C(=O)Nc2ccccc2)c(C)c1C(=O)OC,inconclusive: -33.5% [at 46 µM],
CN(c1ccc(C(=O)NCC2CCCO2)cc1)S(=O)(=O)c1ccccc1 (configuration not stated),inactive: -0.321%,
CCC(=O)n1nc(-c2ccccc2)nc1SCC(=O)Nc1ccc(C)cc1,inactive: 3.64%,
O=C(OCC(=O)N1CCN(C(=O)c2ccco2)CC1)c1cc(-c2ccco2)nc2ccccc12,inactive: 13%,
CCCCn1c(NC(C)=O)c(C#N)c2nc3ccccc3nc21,inconclusive: -0.147%,
CC(=O)c1cccc(NC(=O)CC2Oc3ccc(C)cc3NC2=O)c1 (configuration not stated),inactive: -15%,
CC(=O)NC(=S)Nc1ccc([N+](=O)[O-])cc1C,inactive: 3.66% [at 46 µM],

# Two of the compounds above, bar-delimited.
Compound | ratio change, negative = inhibition | Potency
CCOc1cc(/C=N/NC(=O)c2ccc(-c3csc(Nc4ccc(C)cc4)n3)cc2)ccc1OCC(=O)O | inactive: -8.7% [at 46 µM] | 
CN(c1ccc(C(=O)NCC2CCCO2)cc1)S(=O)(=O)c1ccccc1 (configuration not stated) | inactive: -0.321% | 
